Results are given in words; binding and its absence hold for the method and conditions named. Binding seen in cells or lysates may run through a third protein. Binding calls can cover weak binding; strength is not graded here.
target: T1, human FBXL3 (human) (UniProt Q9UKT7); experiment: co-IP
T1 sequence: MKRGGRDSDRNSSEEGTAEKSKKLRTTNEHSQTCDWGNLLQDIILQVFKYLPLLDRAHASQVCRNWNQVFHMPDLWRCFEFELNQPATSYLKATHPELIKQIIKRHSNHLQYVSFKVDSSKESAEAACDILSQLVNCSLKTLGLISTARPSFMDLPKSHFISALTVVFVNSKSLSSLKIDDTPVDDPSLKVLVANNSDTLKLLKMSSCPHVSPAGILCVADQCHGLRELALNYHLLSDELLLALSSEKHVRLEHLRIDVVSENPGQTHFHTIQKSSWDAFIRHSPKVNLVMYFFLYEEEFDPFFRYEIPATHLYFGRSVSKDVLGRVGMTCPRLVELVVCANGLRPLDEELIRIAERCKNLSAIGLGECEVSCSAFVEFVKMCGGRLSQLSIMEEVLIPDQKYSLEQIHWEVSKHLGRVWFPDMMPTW

| Substance | binding |
| --- | --- |
| human CRY2 D347H | binds |
| human CRY2 D467N | binds |
| human CRY2 R460C | binds |
| human CRY2 S436R | binds |
| human CRY2 wildtype | binds |
